Reference: US20230167155A1 (KING'S COLLEGE LONDON, priority 2020, published 2023)

Experiment: peptide synthesis
Conditions: conjugation step, UV 220, 240, 280 nm, TFA salt

Substance: [Myr2]-KSSKSPSKKDDKKPGDK(CO—CH2-S—CH2-CH2-Phe-Cha-Cha-Arg-Lys-Pro-Asn-Asp-Lys-NH2)NH2 (Myr2, thioether-linked Phe-Cha-Cha branch, C-terminal amide; Synthetic compound (PTL0GC1 - including Lysine residue))
- final HPLC purity: >95%
